Assay results: patent US20180258181A1
These are yes or no findings as the source states them, for the method shown. Some results given as binding are weak or reduced against the parent protein; the word gives no strength.

Amino acid sequences for entries named in this document (tags omitted). A change or cut given only in a name is not applied to a line headed by its entry.
UniProt Q13421: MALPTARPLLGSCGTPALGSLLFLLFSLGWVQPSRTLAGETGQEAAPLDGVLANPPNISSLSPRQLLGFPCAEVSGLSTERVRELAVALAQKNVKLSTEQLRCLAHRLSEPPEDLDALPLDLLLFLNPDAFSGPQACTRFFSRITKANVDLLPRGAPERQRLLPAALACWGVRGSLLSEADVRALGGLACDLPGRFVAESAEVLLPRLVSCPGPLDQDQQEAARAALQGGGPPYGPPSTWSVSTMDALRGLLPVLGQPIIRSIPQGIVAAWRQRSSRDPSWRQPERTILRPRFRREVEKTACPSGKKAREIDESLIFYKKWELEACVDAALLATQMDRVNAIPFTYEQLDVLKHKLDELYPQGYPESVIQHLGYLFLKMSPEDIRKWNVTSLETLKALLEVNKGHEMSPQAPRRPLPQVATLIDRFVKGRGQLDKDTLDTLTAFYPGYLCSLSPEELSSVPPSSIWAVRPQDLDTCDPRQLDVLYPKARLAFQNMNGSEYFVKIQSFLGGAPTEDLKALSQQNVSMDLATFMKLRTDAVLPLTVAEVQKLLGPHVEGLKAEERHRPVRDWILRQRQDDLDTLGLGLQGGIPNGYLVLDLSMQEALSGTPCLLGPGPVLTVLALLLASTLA

Legend:
[1] = target: mesothelin on CHO-A9 cells (CHO-K1 stably transfected with the GPI-anchored C-terminal part of mesothelin) (Homo sapiens (Human)) (UniProt Q13421); experiment: immunoblot of cell extract, denaturing and reducing SDS-PAGE
[2] = target: recombinant, deglycosylated mesothelin (Homo sapiens (Human)) (UniProt Q13421); experiment: immunoblot of recombinant deglycosylated mesothelin, SDS-PAGE denaturing and reducing, MF-J-IgG as primary antibody, ECL
[3] = target: recombinant, deglycosylated mesothelin (Homo sapiens (Human)) (UniProt Q13421); experiment: immunoblot
[4] = target: mesothelin on CHO-A9 cells (CHO-K1 stably transfected with the GPI-anchored C-terminal part of mesothelin) (Homo sapiens (Human)) (UniProt Q13421); experiment: immunoblot of CHO-A9 cell extract, SDS-PAGE denaturing and reducing, MF-J-IgG as primary antibody, ECL
[5] = target: mesothelin on CHO-A9 cells (CHO-K1 stably transfected with the GPI-anchored C-terminal part of mesothelin) (Homo sapiens (Human)) (UniProt Q13421); experiment: 125I-labelled antibody bound to CHO-A9 cells with second antibody, kept at 0 °C; supernatant, acid wash and pellet counted
[6] = target: mesothelin on CHO-A9 cells (CHO-K1 stably transfected with the GPI-anchored C-terminal part of mesothelin) (Homo sapiens (Human)) (UniProt Q13421); experiment: 125I-labelled antibody (1 ug/ml) bound to CHO-A9 cells at 0 °C with second antibody, then 37 °C; supernatant, acid wash and pellet counted

binding [1] | binding [2] | binding [3] | binding [4] | binding [5] | binding [6] | Binder
binds | binds | binds | binds | – | – | MF-J IgG (antibody, V domains shown) VH: QVELVQSGAEVKKPGESLKISCKGSGYSFTNYWIGWVRQMPGKGLEWMGVIMPSDSYTRYSPSFQGQVTISADKSISTAYLQWSSLKASDTAMYYCARYGHGMYGGALDVWGQGTLVTVSS VL: DIVLTQSPATLSLSPGERATLSCRASQSVRSSRLAWYQQKPGQAPRLLIYGASKRATGVPARFSGSGSGTDFTLTISSLEPEDFATYYCQQYYDFPPTFGQGTKVEIKR
– | – | – | – | binds | binds | MF-226 IgG (antibody, V domains shown) VH: QVELVQSGAEVKKPGASVKVSCKASGYTFTGNYINWVRQAPGQGLEWMGIINPHGGDTKYAQKFQGRVTMTRDTSISTAYMELSSLRSEDTAVYYCARWHHGTWIFDYWGQGTLVTVSS VL: DIVLTQPPSVSGAPGQRVTISCSGSSSNIGSNYVSWYQQLPGTAPKLLIYNDNQRPSGVPDRFSGSKSGTSASLAITGLQSEDEADYYCSTYDRRTFSVFGGGTKLTVLG
